Assay results taken from PubChem BioAssay AID540276 (National Center for Advancing Translational Sciences (NCATS), 2011).
The whole screen tested about 300,000 compounds, of which about 5,400 (1.8%) were called active. This list was built around the results that the source calls inconclusive (neither active nor inactive); the mix of calls is not that of the screen. The call rests on the fitted dose curve; tested in HEK293 cells. Potencies of inconclusive entries are doubtful fits and often do not repeat.

assay: qHTS for inhibitors of binding or entry into cells for Marburg Virus; conditions: Marburg virus pseudotyped entry inhibition, cell reporter; activity change, negative = inhibition: at 37.8 µM (top of the series) unless noted
On the % scale 0 is the no-effect control and ±100 the full control effect; potency means the concentration at half of the fitted maximal effect.

Structure (SMILES) | Potency | activity change, negative = inhibition
O=C(O)/C=C\c1cccc(-n2cnnn2)c1 | inconclusive: 2.82 µM [inhibitor, partial curve] | –
Cc1ccccc1CN1CCN(CC(=O)NCCCN2CCN(c3ccc(F)cc3)CC2)C1=O | inconclusive: 20 µM [inhibitor, single point] | –
CCn1c(SCC(=O)c2ccc(Cl)cc2)nnc1-c1cccs1 | – | inactive: -7.02% [at 46.1 µM]
O=C(CCc1nc(-c2ccccc2F)no1)NC1CCCCC1 | – | inactive: -4.47%
Cc1ccc(-c2nnc(Nc3ccc(Br)cc3)c3ccccc23)cc1S(=O)(=O)NCC1CCCO1 (configuration not stated) | inconclusive: 15.8 µM [inhibitor, single point] | –
COc1ccc(NC(=O)c2ccc(-n3nc(C)c[n+]3[O-])cc2)cc1 | inconclusive: 4.47 µM [inhibitor, single point] | –
O=C(OCn1nnc2ccccc2c1=O)C12CC3CC(CC(O)(C3)C1)C2 | inconclusive: 0.794 µM [activator, single point] | –
CCc1cc(-c2n[nH]c(C)c2-c2nc3ccccc3n2C)c(O)cc1O | inconclusive: 7.08 µM [inhibitor, full curve, poor fit] | –
CCCS(=O)(=O)N1CCN(Cc2ccc3c(c2)c2ccccc2n3CC)CC1 | active: 10.3 µM | –
COC(=O)Nc1nc(-c2ccccc2)c(C(=O)c2ccccc2)s1 | inconclusive: 8.91 µM [inhibitor, partial curve, poor fit] | –
Cc1onc(-c2c(F)cccc2Cl)c1C(=O)Nc1ccc(S(=O)(=O)N2CCOCC2)cc1 | inconclusive: 35.5 µM [inhibitor, partial curve, poor fit] | –
CCn1c(=O)n(CC(=O)N2CCN(c3ccccc3F)CC2)c(=O)c2ccccc21 | inconclusive: 1.26 µM [activator, full curve, poor fit] | –
Cc1cc(Cl)c(OCCCCNC(C)(C)C)c(Br)c1 | inconclusive: 20.6 µM [inhibitor, single point] | –
CN(C)c1ccc(-c2nc3n(n2)C(c2cccnc2)C2=C(CC(C)(C)CC2=O)N3)cc1 (configuration not stated) | inconclusive: 0.112 µM [activator, full curve, poor fit] | –
COc1ccccc1N1CCN(CCCCNC(=O)c2ccc3ccccc3c2)CC1 | active: 8.91 µM | –
N#Cc1nc(-c2ccc(COc3ccccc3)o2)oc1NCc1cccnc1 | – | inactive: -8.01% [at 46.1 µM]
CC1(C)COC(c2cccc(C3=NC(C)(C)CO3)n2)=N1 | inconclusive: 0.631 µM [inhibitor, partial curve, poor fit] | –
Cc1cc(C(=O)CSc2ncccn2)c(C)n1Cc1ccco1 | inconclusive: 17.8 µM [inhibitor, single point] | –
O=c1oc2ccccc2c(Nc2ccccc2)c1[N+](=O)[O-] | inconclusive: 14.1 µM [inhibitor, partial curve, poor fit] | –
C=CCN(c1ccccc1Cl)S(=O)(=O)c1cccc(C(=O)OCC(=O)N(C)C2CCS(=O)(=O)C2)c1 (configuration not stated) | inconclusive: 14.1 µM [inhibitor, single point] | –
O=C(/C=C/c1ccc(Cl)cc1Cl)N(Cc1ccccc1)C1CCS(=O)(=O)C1 (configuration not stated) | inconclusive: 22.4 µM [inhibitor, single point] | –

A run of entries from the list above:
Structure (SMILES) | Potency | activity change, negative = inhibition
CCc1cc(-c2n[nH]c(C)c2-c2nc3ccccc3n2C)c(O)cc1O | inconclusive: 7.08 µM [inhibitor, full curve, poor fit] | –
CCCS(=O)(=O)N1CCN(Cc2ccc3c(c2)c2ccccc2n3CC)CC1 | active: 10.3 µM | –

Continued:

Structure (SMILES) | Potency | activity change, negative = inhibition
CN(C)CCCNC(=O)C[C@H]1C[C@H](C(=O)N2CCCCC2)[C@@]2(C)c3[nH]c4cc(-c5ccco5)ccc4c3CCN2C1=O | – | inactive: -5.42%
Cc1nn(-c2ccccc2)c(OC(=O)c2cccc(Br)c2)c1S(=O)(=O)c1ccccc1 | – | inactive: 4.02% [at 46.1 µM]
CCOC(=O)c1c(-c2ccccc2)csc1NC(=O)CSc1nnc(C)s1 | inconclusive: 35.5 µM [inhibitor, single point] | –
CCN(CC)CCCNC(=S)N1CCN(c2nc(-c3ccccc3)cs2)CC1 | inconclusive: 10 µM [inhibitor, partial curve, poor fit] | –
Cc1cc(NC(=O)CCSc2nc(-c3ccco3)cc(C(F)(F)F)n2)no1 | – | inactive: 3.63%
CCn1c(C)cc(/C=C2\NC(=O)N(Cc3ccccc3)C2=O)c1C | inconclusive: 0.231 µM [inhibitor, full curve, poor fit] | –
COc1ccc(-c2cc(C(=O)Nc3c(C)nn(Cc4ccccc4Cl)c3C)no2)cc1 | inconclusive: 18.3 µM [inhibitor, partial curve, poor fit] | –
COCCSc1nc2sc3c(c2c(=O)n1-c1ccccc1)CCN(C)C3 | – | inactive: -6.32%
COC(=O)c1ccc(OC(=O)CCN2C(=O)C3CCCCC3C2=O)cc1 (configuration not stated) | inconclusive: 6.31 µM [inhibitor, single point] | –
O=C(O)CC/C(=N\Nc1ccccc1[N+](=O)[O-])c1cccs1 | inconclusive: 6.31 µM [activator, full curve, poor fit] | –
COc1cccc(C2CC(=O)Nc3cc(OC)c(OC)c(OC)c32)c1OC(C)C (configuration not stated) | inconclusive: 35.5 µM [inhibitor, single point] | –
CCOCCCn1c(C)nc2c(c1=O)c1nc3ccccc3nc1n2CCC1=CCCCC1 | active: 10 µM | –
CN(CC(=O)N1CCCCCC1)S(=O)(=O)c1ccccc1 | inconclusive: 35.5 µM [activator, single point] | –
CS(=O)(=O)N1CCN(C(=O)C2c3ccccc3Oc3ccccc32)CC1 | – | inactive: 2.04%
CC(=O)Nc1ccc(OCC=C(Cl)Cl)cc1 | – | inactive: 12%
CCCC(=O)NC(NC(=S)Nc1ccc(N=Nc2ccccc2)cc1)C(Cl)(Cl)Cl (configuration not stated) | inconclusive: 22.4 µM [inhibitor, single point] | –
Cc1ccnc(N2C(=O)C3C4CC(C(Br)C4Br)C3C2=O)c1 (configuration not stated) | inconclusive: 35.5 µM [activator, single point] | –
COc1ccc(-c2nc3ccc([N+](=O)[O-])cc3[nH]2)cc1 | inconclusive: 11.6 µM [inhibitor, partial curve, poor fit] | –
N#Cc1cccc(C(c2nnnn2CCc2ccccc2)N2CCN(C3CCCCC3)CC2)c1 (configuration not stated) | inconclusive: 18.3 µM [inhibitor, single point] | –
Cc1cc(C)n2nc(-c3sccc3-n3cccc3)cc2n1 | – | inactive: 0%
CS(=O)(=O)N(Cc1ccc(C(=O)NC2CCCC2)cc1)c1ccccc1 | inconclusive: 13 µM [inhibitor, partial curve, poor fit] | –
